Laboratory results taken from PubChem BioAssay AID504444 (National Center for Advancing Translational Sciences (NCATS), 2011).
Out of some 360,000 compounds screened, about 7,500 (2.1%) were called active. The inconclusive results got no clear call from the source; some entries with a clear call stand among them for comparison. Calls come from the whole dose curve; as a rule, active = well fitted inhibition curve with a large enough effect; inconclusive = small, poorly fitted or top-dose-only effect, or effect the other way; inactive = flat fitted curve, though single readings scatter. A potency beside an inconclusive call is a rough fit, not a confirmed value.

assay: Nrf2 qHTS screen for inhibitors; settings: A549 ARE-Fluc reporter, luciferase luminescence, 18-24 h; activity change, negative = inhibition: at 46 µM (top of the series); note: nearly all actives have a fitted effect of over 60% in size
Outline: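 Quantitative HTS in A549 cells stably bearing an antioxidant response element-firefly luciferase construct. Inhibition of Nrf2-driven transcription was scored by luminescence after 18-24 h of compound exposure at 37 °C.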
% is set by controls: 0 for no effect and ±100 for the full control effect; potency is the fitted concentration of half-maximal effect.

Structure (SMILES)	Potency	activity change, negative = inhibition
Cc1ccc(C(=O)Nc2ccccc2C(=O)NCc2ccco2)cc1S(=O)(=O)N1CCCCC1	inconclusive: 25.9 µM [falling, single point]	
COCCn1c(SCC(=O)Nc2sc(C)c(C)c2C#N)nnc1-c1ccc(OC)cc1	inconclusive: 32.6 µM [falling, single point]	
O/C(=C\c1nc2ccccc2[nH]1)c1cccs1	inconclusive: 4.61 µM [activator, full curve, poor fit]	
N#CN1CCC(NS(=O)(=O)c2cccc(F)c2)C1 (stereo not given)		inactive: 14.3%
O=C(/C=C/c1ccco1)N(Cc1ccccc1F)C1CCS(=O)(=O)C1 (stereo not given)		inactive: 8%
COc1ccc(-c2nc3scc(CCNC(=O)c4cccc(Br)c4)n3n2)cc1		inactive: -12%
COc1ccc(NC(=O)c2sc3nc4c(c(-c5ccc(OC)cc5)c3c2N)C(=O)CC(C)(C)C4)cc1		inactive: -20.8%
Cc1cc(-c2ccc(S(=O)(=O)N3CCN(c4ccc(Cl)cc4)CC3)s2)on1	inconclusive: 20.6 µM [activator, single point]	
CCOC(=O)c1ccc(N2C(=O)c3[nH]nc(-c4ccc(OCC)cc4)c3C2c2cccs2)cc1 (stereo not given)	active: 18.4 µM	
Cc1ccc2nc(/C(C#N)=C\c3ccc(N4CCOCC4)o3)[nH]c2c1	inconclusive: 0.0046 µM [activator, full curve, poor fit]	
Cn1c(=O)oc2cc(S(=O)(=O)N3CCN(c4cccc(Cl)c4)CC3)ccc21	inconclusive: 29.1 µM [falling, single point]	
CCN(C(=O)CSc1nc2nc(C)cc(C)n2n1)c1cccc(C)c1		inactive: -17.7%
CC(C)[C@H](NC(=O)c1ccc([N+](=O)[O-])cc1Cl)C(=O)N1CCN(C/C=C/c2ccccc2)CC1	active: 23.1 µM	
O=C(OCC(=O)N1CCCCCC1)c1ccccc1Br	inconclusive: 18.4 µM [activator, single point]	
CC1(C)C(=O)OC(c2c3ccccc3cc3ccccc23)C(C)(C)C1=O (stereo not given)	inconclusive: 14.6 µM [falling, partial curve, poor fit]	
CN(c1ccc(C(=O)Nc2ccc(S(=O)(=O)N3CCCC3)cc2)cc1)S(C)(=O)=O	active: 9.2 µM	
CCOC(=S)SCc1cn2ccc(C)cc2n1		inactive: 1.29%
O=C(Nc1ccc2c(c1)OC1(CCCC1)O2)C1CC1	inconclusive: 29.1 µM [activator, single point]	
O=C(c1ccco1)N(CCCN1CCOCC1)c1nc(-c2ccc(Cl)cc2)cs1	inconclusive: 29.1 µM [falling, single point]	
O=C(Cn1cc(C(F)(F)F)cc(Cl)c1=O)NCc1ccc(F)cc1	inconclusive: 2.06 µM [activator, full curve, poor fit]	

Another view of some results above.
Structure (SMILES) | Potency | activity change, negative = inhibition
Cc1ccc(C(=O)Nc2ccccc2C(=O)NCc2ccco2)cc1S(=O)(=O)N1CCCCC1 | inconclusive: 25.9 µM [falling, single point] | 
COCCn1c(SCC(=O)Nc2sc(C)c(C)c2C#N)nnc1-c1ccc(OC)cc1 | inconclusive: 32.6 µM [falling, single point] | 
O/C(=C\c1nc2ccccc2[nH]1)c1cccs1 | inconclusive: 4.61 µM [activator, full curve, poor fit] | 
N#CN1CCC(NS(=O)(=O)c2cccc(F)c2)C1 (stereo not given) |  | inactive: 14.3%
